Source: doi:10.1101/216713
Read-outs that look alike come from different tables or passages of the source. No constants are given. Whether binding was seen depends on the method and setting. Some entries that bind do so weakly or less than the wild type.

The chains behind the UniProt entries cited, without tags or fusion partners.
UniProt P40160: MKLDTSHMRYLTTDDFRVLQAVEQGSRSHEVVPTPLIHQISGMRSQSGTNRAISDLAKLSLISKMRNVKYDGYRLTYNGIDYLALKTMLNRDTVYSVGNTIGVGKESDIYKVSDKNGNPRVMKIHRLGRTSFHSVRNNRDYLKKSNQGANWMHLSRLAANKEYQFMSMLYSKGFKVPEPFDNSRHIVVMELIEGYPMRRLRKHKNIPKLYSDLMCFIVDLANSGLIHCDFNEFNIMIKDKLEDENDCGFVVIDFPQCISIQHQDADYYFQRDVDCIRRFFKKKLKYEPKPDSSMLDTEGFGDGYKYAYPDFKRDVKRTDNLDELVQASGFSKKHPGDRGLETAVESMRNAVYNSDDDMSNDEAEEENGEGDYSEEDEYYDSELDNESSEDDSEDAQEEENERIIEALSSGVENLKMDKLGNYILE
UniProt P0CX29: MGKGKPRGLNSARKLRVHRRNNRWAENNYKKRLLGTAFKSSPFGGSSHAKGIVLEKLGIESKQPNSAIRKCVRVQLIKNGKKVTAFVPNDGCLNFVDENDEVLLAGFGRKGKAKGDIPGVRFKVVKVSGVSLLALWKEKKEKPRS

Assays:
Experiment in all cases: cryo-EM structure
[1] = molecular target: T1, ribosomal protein uS13 (S. cerevisiae (endogenous in the yeast strain)) (UniProt P0CX55)
T1 sequence: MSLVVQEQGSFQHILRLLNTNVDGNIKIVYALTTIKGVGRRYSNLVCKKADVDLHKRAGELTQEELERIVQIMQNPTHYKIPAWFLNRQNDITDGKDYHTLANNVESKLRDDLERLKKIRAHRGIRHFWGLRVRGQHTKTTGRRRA

[2] = molecular target: T2, ribosomal protein uS19 (S. cerevisiae (endogenous in the yeast strain)) (UniProt Q01855)
T2 sequence: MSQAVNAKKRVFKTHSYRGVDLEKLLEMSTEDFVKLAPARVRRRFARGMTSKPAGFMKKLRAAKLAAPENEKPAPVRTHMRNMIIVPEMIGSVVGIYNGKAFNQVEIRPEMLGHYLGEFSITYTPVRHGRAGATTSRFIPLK

[3] = molecular target: T3, Enp1 (S. cerevisiae (endogenous in the yeast strain)) (UniProt P38333)
T3 sequence: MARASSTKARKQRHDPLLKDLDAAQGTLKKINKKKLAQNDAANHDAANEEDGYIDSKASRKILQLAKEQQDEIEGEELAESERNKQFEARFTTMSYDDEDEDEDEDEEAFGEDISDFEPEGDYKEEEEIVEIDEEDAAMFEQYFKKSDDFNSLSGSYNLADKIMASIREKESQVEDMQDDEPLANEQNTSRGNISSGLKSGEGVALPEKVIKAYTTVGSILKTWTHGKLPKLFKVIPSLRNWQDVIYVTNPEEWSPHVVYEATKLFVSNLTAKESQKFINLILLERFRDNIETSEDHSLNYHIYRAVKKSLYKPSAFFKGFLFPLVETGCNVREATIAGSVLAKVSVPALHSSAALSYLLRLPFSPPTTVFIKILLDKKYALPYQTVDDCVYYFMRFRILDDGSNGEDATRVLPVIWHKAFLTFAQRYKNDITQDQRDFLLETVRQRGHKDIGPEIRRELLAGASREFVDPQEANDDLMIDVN

[4] = molecular target: T4, ribosomal protein uS3 (S. cerevisiae (endogenous in the yeast strain)), P05750; conditions: remark: other sources report otherwise
T4 chain: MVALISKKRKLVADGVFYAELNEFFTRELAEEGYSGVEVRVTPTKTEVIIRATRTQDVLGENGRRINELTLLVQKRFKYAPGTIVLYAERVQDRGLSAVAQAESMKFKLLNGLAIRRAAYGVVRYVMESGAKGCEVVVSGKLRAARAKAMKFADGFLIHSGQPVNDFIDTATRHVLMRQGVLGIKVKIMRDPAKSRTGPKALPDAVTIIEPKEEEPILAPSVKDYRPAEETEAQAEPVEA

[5] = molecular target: T1, ribosomal protein uS13 (S. cerevisiae (endogenous in the yeast strain)); remark: listed apart in the source
[6] = molecular target: Rio2 (S. cerevisiae (endogenous in the yeast strain)) (UniProt P40160)
[7] = molecular target: ribosomal protein uS12 (S. cerevisiae (endogenous in the yeast strain)) (UniProt P0CX29)
[8] = molecular target: T2, ribosomal protein uS19 (S. cerevisiae (endogenous in the yeast strain)); remark: listed apart in the source

## Rio2 (from UniProt P40160 1-425) (enzyme)
[1]
  binding: binds
[2]
  binding: binds

B1: Ltv1 (protein, UniProt P34078 1-463)
chain: MSKKFSSKNSQRYVVVHRPHDDPSFYDTDASAHVLVPVSNPNKTSPEADLRKKDVSSTKPKGRRAHVGEAALYGINFDDSEYDYTQHLKPIGLDPENSIFIASKGNEQKVEKKNIEDLFIEPKYRRDEIEKDDALPVFQRGMAKPEYLLHQQDTTDEIRGFKPDMNPALREVLEALEDEAYVVNDDVVVEDISKKTQLQGDNYGEEEKEDDIFAQLLGSGEAKDEDEFEDEFDEWDIDNVENFEDENYVKEMAQFDNIENLEDLENIDYQADVRRFQKDNSILEKHNSDDEFSNAGLDSVNPSEEEDVLGELPSIQDKSKTGKKKRKSRQKKGAMSDVSGFSMSSSAIARTETMTVLDDQYDQIINGYENYEEELEEDEEQNYQPFDMSAERSDFESMLDDFLDNYELESGGRKLAKKDKEIERLKEAADEVSKGKLSQRRNRERQEKKKLEKVTNTLSSLKF
[3]
  binding: binds

B2: Enp1, P38333 1-483 (protein)
chain: MARASSTKARKQRHDPLLKDLDAAQGTLKKINKKKLAQNDAANHDAANEEDGYIDSKASRKILQLAKEQQDEIEGEELAESERNKQFEARFTTMSYDDEDEDEDEDEEAFGEDISDFEPEGDYKEEEEIVEIDEEDAAMFEQYFKKSDDFNSLSGSYNLADKIMASIREKESQVEDMQDDEPLANEQNTSRGNISSGLKSGEGVALPEKVIKAYTTVGSILKTWTHGKLPKLFKVIPSLRNWQDVIYVTNPEEWSPHVVYEATKLFVSNLTAKESQKFINLILLERFRDNIETSEDHSLNYHIYRAVKKSLYKPSAFFKGFLFPLVETGCNVREATIAGSVLAKVSVPALHSSAALSYLLRLPFSPPTTVFIKILLDKKYALPYQTVDDCVYYFMRFRILDDGSNGEDATRVLPVIWHKAFLTFAQRYKNDITQDQRDFLLETVRQRGHKDIGPEIRRELLAGASREFVDPQEANDDLMIDVN
[4]
  binding: binds

B3: Tsr1 (protein, UniProt Q07381 1-788)
chain: MAGHSHRSSLKNGHKSYKSKHASKGALKRLYKGKVEKEPVGTGKPDKQVSKLQRKNKAKQLRAQRILDSIENRKLFEGKNGAAKIITIVPLVNDLDPLDILYKLLKCADDEGIMVQEVDSKRIFNVHIKKFKSNLKIIIPDMTNFLNILDCAKVADFVVFGLSGVQEVDEEFGEQIIRALELQGIASYIGVISNLSAVHEKEKFQLDVKQSLESYFKHFFPSEERVYNLEKNSDALNVLRTLCQRLPRSINWRDNRGYVVADFVDFVETSPDSGDLVIEGTVRGIGFNANRLVHIPDFGDFQLNKIEKISESSQKRKIIKEKATDSLSLELDLQTVFESNMNRDTLDEYAPEGTEDWSDYDEDFEYDGLTTARYDDHGFLPGREQTSKKAAVPKGTSDYQAKWYLDDVIDANEEEEAEQTNGKDETMMEIDDEMMVEQDNEEVAGDEEYDIEDNEGFEELSPEEEERQLREFRDMEKEDREFPDEIELEPSESAIERLKRYRGLKNLYNCDWQVDEKDPSSPAEWKRLLRIGNYKNTKNRIIKETKNEAQAIAGDRIRMFIRFPKFLLEKIQDPKQLLFAVYGLLLHEHKNAVVNFSLQRWEQYDKPVPSQEPIVVQYGVRRYTIQPLFSQGSNSPNNVHKYERFLHPDTVSVATCIAPVDFTQSPAIFFKPSPTDAKNIELIGHGTFLNADHSRILAKRAILTGHPFRFHKTVVTVRYMFFRPEDVEWFKSIPLFTKSGRSGFIKESLGTHGYFKATFDGKLSAQDVVAMSLYKRMWPMPSLPWNGM
[5]
  binding: binds
[6]
  binding: binds
[7]
  binding: binds
[8]
  binding: binds
